Patent EP0400227A1, “Natriuretic peptides” (Acticor, Inc., priority 1989, dated 1990)
Not every detail of the peptide structures is certain; ends, links or a residue may be inferred. Ends that are not written are not given here.

Columns and labels:
rats [1] = test: Natriuretic and diuretic activity by intrarenal infusion (left renal artery) in anesthetized rats; type: in vivo, male Sprague-Dawley rat; conditions: Figure 2
rats [2] = test: Natriuretic and diuretic effect of intravenous bolus injection in anesthetized rats; type: in vivo, male Sprague-Dawley or Long-Evans rats; conditions: 30 to 60 minutes after minus 30 to 0 minutes before injection, mean ± SEM
Protocol: Diuretic and natriuretic activity of the peptides of this invention is assayed in male rats of the Sprague-Dawley or Long-Evans strains. Peptide or vehicle (for control purposes) is administered by intravenous bolus injection or by continuous infusion into one […] of animals anesthetized for the duration of the experiment, or by intramuscular or subcutaneous injection into animals only briefly anesthetized with ether and subsequently conscious and freely moving until completion of the experiment. Timed urine samples are collected for determination of volume and measurement of sodium and potassium concentration by flame photometry. Details of each method are given in Examples II to IV below.
The natriuretic and diuretic effect of intravenous bolus injection of peptides F15R, G13R and E19R was tested in male Sprague-Dawley or Long-Evans rats weighing 300-400 g. The animals were given Inactin®, 120 mg per kg body weight i.p. under light ether anesthesia. Following placement of a tracheal cannula, the right femoral vein was catheterized for infusion of 5% bovine serum albumin at a dose of 0.4% of body weight and at a rate of 6.0 ml/hour. Subsequently, normal saline was infused for the duration of the experiment at a rate of 2.0 ml/hour. The bladder was exposed through an abdominal incision and catheterized for urine collection. Serial 15-minute urine collections in preweighed vials were begun after a recovery period of 45 minutes. After collection of four control samples, the peptide in 0.1 ml of vehicle was injected into the femoral vein over a period of 1 minute and 6 to 10 further urine samples were collected. Urine volume was determined by weighing and urine sodium and potassium were assayed by flame photometry. All peptides produced natriuresis and diuresis reaching peak levels usually between 30 and 60 minutes after injection. The difference between urine volume and sodium excretion observed from 30 to 60 minutes after and 30 to 0 minutes before peptide administration was calculated for each rat as a measure of activity.

rats [3] = test: Subcutaneous administration in conscious, freely moving saline-loaded rats; type: in vivo, male Long-Evans rats; conditions: s.c. 0.25 nmoles/kg body weight, i.p. saline load 2.5% of body weight, mean ± SEM
[4] = i.v. 0.100 nmol (0.10 nmol for G13R)

With “FPGNGDEQPLTENPR [F15R, Phe-Pro-Gly-Asn-Gly-Asp-Glu-Gln-Pro-Leu-Thr-Glu-Ans-Pro-Arg-OH]” the “sodium excretion from the infused kidney” value (rats [1]; infusion of 30 fmol F15R per minute into left renal artery for 60 minutes, peak after one hour, relative to basal rate) was “peak rate five times the basal rate”, the “sodium excretion by the un-infused kidney” value (rats [1]; infusion of 30 fmol F15R per minute into left renal artery, spill-over into general circulation) was “Qualitatively similar, but smaller changes” and the “Change in Sodium Excretion” value (rats [2]; i.v. 0.025 nmol) was 25.75 ± 12.02 µeq/30 minutes. For the same sequence, the “Change in Urine Volume” value (rats [2]; i.v. 0.025 nmol) was 111.2 ± 20.2 µl/30 minutes, the “Change in Sodium Excretion” value (rats [2]; [4]) was 45.43 ± 19.34 µeq/30 minutes and the “Change in Urine Volume” value (rats [2]; [4]) was 306.6 ± 101.6 µl/30 minutes. For the same sequence, the Sodium excretion (rats [3]) was 1,330 ± 148 µeq/6 hours, the Urine volume (rats [3]) was 10.69 ± 0.47 ml/6 hours and the “Urinary Na/K ratio” value (rats [3]; urine of six hours) was 2.80 ± 0.42.
